Measured data: PubChem BioAssay AID1259405 (NCATS, 2018)

Screen: 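Silenced genes that increase secreted GFP made by CHO cells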 (primary screen)
System: Chinese hamster CHO-K1 ovary cells with stable secreted eGFP expression
Reagent: single siRNA against mouse genes, 0.8 pmol siRNA per well (2 µl of 400 nM stock)
Duration: 3 days
Measured: 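Per-well intracellular GFP measured by laser scanning cytometry, plus viability from ATP luminescence, each relative to plate median of non-targeting control wells, in %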
Scale: GFP, % of control: higher = more GFP per well, higher productivity; viability (ATP), % of control: higher = more viable cells (more ATP)
Active means: 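Called active when intracellular GFP, relative to negative control, is at or above 120%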
This is a random part of about 50,000 reagents tested. Over the whole deposit, about 4,000 (8%) are marked active. 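Mouse siRNA library applied to hamster cells; one well for each siRNA.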 Entries without a mark were called inactive. The numbers tell different reagents against one gene apart.

GFP, % of control | viability (ATP), % of control | gene | reagent
48.7 | 99.3 | Bri3bp (Bri3 binding protein) | 1
76.9 | 73.4 | Bri3bp (Bri3 binding protein) | 2
132 (active) | 131 | Bri3bp (Bri3 binding protein) | 3
83.5 | 67.8 | Vill (villin-like) | 1
77.2 | 77 | Vill (villin-like) | 2
88.8 | 103 | Cdh22 (cadherin 22) | 1
68.7 | 39.5 | Cdh22 (cadherin 22) | 2
55.9 | 79.5 | Cdh22 (cadherin 22) | 3
64.3 | 83 | Teddm2 (transmembrane epididymal family member 2) | 1
62.1 | 73.2 | Teddm2 (transmembrane epididymal family member 2) | 2
69 | 74.4 | Teddm2 (transmembrane epididymal family member 2) | 3
106 | 76.1 | Med8 (mediator complex subunit 8) | 1
98.3 | 88.1 | Med8 (mediator complex subunit 8) | 2
58.5 | 77.4 | Med8 (mediator complex subunit 8) | 3
52 | 50.7 | Or7g12 (olfactory receptor family 7 subfamily G member 12) | 1
69.6 | 53.7 | Or7g12 (olfactory receptor family 7 subfamily G member 12) | 2
84.7 | 67.5 | Or7g12 (olfactory receptor family 7 subfamily G member 12) | 3
99.1 | 93.9 | Or5w17 (olfactory receptor family 5 subfamily W member 17) | 1
65.2 | 68.2 | Or5w17 (olfactory receptor family 5 subfamily W member 17) | 2
130 (active) | 78.1 | Or5w17 (olfactory receptor family 5 subfamily W member 17) | 3
74.5 | 55.1 | Vps39 (VPS39 HOPS complex subunit) | 1
58.8 | 57.7 | Vps39 (VPS39 HOPS complex subunit) | 2
83.5 | 99.5 | Vps39 (VPS39 HOPS complex subunit) | 3
81.6 | 111 | Polr2f (polymerase (RNA) II (DNA directed) polypeptide F) | 1
66.3 | 55.9 | Polr2f (polymerase (RNA) II (DNA directed) polypeptide F) | 2
65.6 | 57.8 | Polr2f (polymerase (RNA) II (DNA directed) polypeptide F) | 3
96.3 | 89.9 | Mindy3 (MINDY lysine 48 deubiquitinase 3) | 1
50.3 | 54.3 | Mindy3 (MINDY lysine 48 deubiquitinase 3) | 2
75.4 | 80.2 | Mindy3 (MINDY lysine 48 deubiquitinase 3) | 3
52.7 | 80.7 | Uba3 (ubiquitin-like modifier activating enzyme 3) | 1
72.7 | 82.6 | Uba3 (ubiquitin-like modifier activating enzyme 3) | 2
73.1 | 111 | Uba3 (ubiquitin-like modifier activating enzyme 3) | 3
56 | 52.7 | Or5al6 (olfactory receptor family 5 subfamily AL member 6) | 1
117 | 103 | Or5al6 (olfactory receptor family 5 subfamily AL member 6) | 2
103 | 52.2 | Or5al6 (olfactory receptor family 5 subfamily AL member 6) | 3
55.7 | 56.1 | Fem1al (fem-1 homolog A like) | 1
62.8 | 41.1 | Fem1al (fem-1 homolog A like) | 2
63.1 | 64.8 | Fem1al (fem-1 homolog A like) | 3
67.9 | 61.8 | Atp5po (ATP synthase peripheral stalk subunit OSCP) | 1
119 | 113 | Atp5po (ATP synthase peripheral stalk subunit OSCP) | 2
80.6 | 80.4 | Atp5po (ATP synthase peripheral stalk subunit OSCP) | 3
96.6 | 112 | Tmem140 (transmembrane protein 140) | 1
81.6 | 85.1 | Tmem140 (transmembrane protein 140) | 2
48.6 | 95.6 | Tmem140 (transmembrane protein 140) | 3
90.2 | 85.5 | Tln2 (talin 2) | 1
90 | 78 | Tln2 (talin 2) | 2
98.5 | 92 | Astn2 (astrotactin 2) | 1
68.6 | 74.2 | Astn2 (astrotactin 2) | 2
83.2 | 91.5 | Astn2 (astrotactin 2) | 3

6 entries from above in another layout.
Med8 (mediator complex subunit 8) #3 | GFP, % of control = 58.5; viability (ATP), % of control = 77.4
Or7g12 (olfactory receptor family 7 subfamily G member 12) #1 | GFP, % of control = 52; viability (ATP), % of control = 50.7
Or7g12 (olfactory receptor family 7 subfamily G member 12) #2 | GFP, % of control = 69.6; viability (ATP), % of control = 53.7
Or7g12 (olfactory receptor family 7 subfamily G member 12) #3 | GFP, % of control = 84.7; viability (ATP), % of control = 67.5
Or5w17 (olfactory receptor family 5 subfamily W member 17) #1 | GFP, % of control = 99.1; viability (ATP), % of control = 93.9
Or5w17 (olfactory receptor family 5 subfamily W member 17) #2 | GFP, % of control = 65.2; viability (ATP), % of control = 68.2

Continued.
GFP, % of control | viability (ATP), % of control | gene | reagent
74.5 | 77.2 | Sirt5 (sirtuin 5) | 1
18.1 | 43 | Sirt5 (sirtuin 5) | 2
155 (active) | 78 | Cdk11b (cyclin dependent kinase 11B) | 1
57.7 | 27.9 | Cdk11b (cyclin dependent kinase 11B) | 2
91.9 | 68.1 | Cdk11b (cyclin dependent kinase 11B) | 3
86.8 | 69.4 | Ltbp4 (latent transforming growth factor beta binding protein 4) | 1
90.1 | 88.5 | Ltbp4 (latent transforming growth factor beta binding protein 4) | 2
67 | 79.6 | Nup50l (nucleoporin 50 like) | 1
96.5 | 63.8 | Nup50l (nucleoporin 50 like) | 2
64.9 | 53.1 | Nup50l (nucleoporin 50 like) | 3
64.5 | 80.2 | Ndufa1 (NADH:ubiquinone oxidoreductase subunit A1) | 1
58.6 | 63.6 | Ndufa1 (NADH:ubiquinone oxidoreductase subunit A1) | 2
76 | 63.4 | Ndufa1 (NADH:ubiquinone oxidoreductase subunit A1) | 3
56.4 | 54.7 | Taf7l (TATA-box binding protein associated factor 7 like) | 1
64.7 | 73.9 | Taf7l (TATA-box binding protein associated factor 7 like) | 2
76.3 | 87.1 | Taf7l (TATA-box binding protein associated factor 7 like) | 3
60.1 | 63.9 | Foxb2 (forkhead box B2) | 1
109 | 72.8 | Foxb2 (forkhead box B2) | 2
67.8 | 74.2 | Foxb2 (forkhead box B2) | 3
77.1 | 68.4 | Nqo2 (N-ribosyldihydronicotinamide quinone reductase 2) | 1
62.4 | 63.1 | Nqo2 (N-ribosyldihydronicotinamide quinone reductase 2) | 2
29.5 | 43.9 | Vhl (von Hippel-Lindau tumor suppressor) | 1
110 | 84 | Vhl (von Hippel-Lindau tumor suppressor) | 2
65.7 | 107 | Vhl (von Hippel-Lindau tumor suppressor) | 3
63.4 | 63.1 | Ubp1 (upstream binding protein 1) | 1
75.7 | 69.8 | Ubp1 (upstream binding protein 1) | 2
63.6 | 97.5 | Ubp1 (upstream binding protein 1) | 3
37.4 | 79.4 | Acss2 (acyl-CoA synthetase short-chain family member 2) | 1
71.7 | 70.1 | Acss2 (acyl-CoA synthetase short-chain family member 2) | 2
202 (active) | 140 | Acss2 (acyl-CoA synthetase short-chain family member 2) | 3
74.6 | 71.7 | Defa-rs12 (defensin, alpha, related sequence 12) | 1
50 | 35.7 | Defa-rs12 (defensin, alpha, related sequence 12) | 2
46.7 | 59.4 | Defa-rs12 (defensin, alpha, related sequence 12) | 3
82.1 | 89.1 | Hdac3 (histone deacetylase 3) | 1
138 (active) | 123 | Hdac3 (histone deacetylase 3) | 2
